# Results deposited as PubChem BioAssay AID1259405 (NCATS, 2018)
# Assay: 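Mouse-designed siRNAs used to find CHO productivity engineering targets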 (primary screen)
# Cell system: Chinese hamster CHO-K1 ovary cells with stable secreted eGFP expression
# Reagent: single siRNA against mouse genes, 0.8 pmol siRNA per well (2 µl of 400 nM stock)
# Time to read-out: 3 days
# Measured: 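Per-well intracellular GFP measured by laser scanning cytometry, plus viability from ATP luminescence, each relative to plate median of non-targeting control wells, in %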
# Reading the numbers: GFP, % of control: higher = more GFP per well, higher productivity; viability (ATP), % of control: higher = more viable cells (more ATP)
# Hit rule: 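Called active when intracellular GFP, relative to negative control, is at or above 120%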
# The whole screen tested about 50,000 reagents; this is a part drawn at random. Of all reagents, about 4,000 (8%) were called active. 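Mouse siRNA library applied to hamster cells; one well for each siRNA.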 Unmarked entries are inactive. The numbers tell different reagents against one gene apart.
Gene,reagent,"GFP, % of control","viability (ATP), % of control"
Cdx4 (caudal type homeobox 4),1,80.9,74.5
Cdx4 (caudal type homeobox 4),2,94.4,87.9
Cdx4 (caudal type homeobox 4),3,67.9,62
Skida1 (SKI/DACH domain containing 1),1,63,78.6
Skida1 (SKI/DACH domain containing 1),2,83.1,80.9
Skida1 (SKI/DACH domain containing 1),3,109,91.1
Tmem266 (transmembrane protein 266),1,76.4,80.4
Tmem266 (transmembrane protein 266),2,79.1,104
Tmem266 (transmembrane protein 266),3,70.5,71.8
Ccl22 (C-C motif chemokine ligand 22),1,76.1,102
Ccl22 (C-C motif chemokine ligand 22),2,53.6,74.5
Trarg1 (trafficking regulator of GLUT4 (SLC2A4) 1),1,82.9,67.1
Trarg1 (trafficking regulator of GLUT4 (SLC2A4) 1),2,65.1,78.9
Trarg1 (trafficking regulator of GLUT4 (SLC2A4) 1),3,92.6,95.4
"H2-K1 (histocompatibility 2, K1, K region)",1,50.1,62.1
"H2-K1 (histocompatibility 2, K1, K region)",2,86,81.2
"H2-K1 (histocompatibility 2, K1, K region)",3,54.5,71.6
"H2-K1 (histocompatibility 2, K1, K region)",4,118,100
"H2-K1 (histocompatibility 2, K1, K region)",5,62.6,48.2
Trex2 (three prime repair exonuclease 2),1,89.5,96.2
Trex2 (three prime repair exonuclease 2),2,90.4,90.4
Trex2 (three prime repair exonuclease 2),3,30.5,53.2
Myo1g (myosin IG),1,74.7,73.6
Myo1g (myosin IG),2,168 (active),108
Myo1g (myosin IG),3,54.9,58.5
"Fam199x (family with sequence similarity 199, X-linked)",1,86.2,98.2
"Fam199x (family with sequence similarity 199, X-linked)",2,74.2,83.8
"Fam199x (family with sequence similarity 199, X-linked)",3,115,95.9
Ccdc92 (coiled-coil domain containing 92),1,69.9,66.1
Ccdc92 (coiled-coil domain containing 92),2,75.4,65.8
Ccdc92 (coiled-coil domain containing 92),3,60,39.7
Prss3b (serine protease 3B),1,76.5,64
Prss3b (serine protease 3B),2,87,69.9
Prss3b (serine protease 3B),3,63.7,58.5
Thbd (thrombomodulin),1,107,99.1
Thbd (thrombomodulin),2,67.8,58.8
Thbd (thrombomodulin),3,64.3,50.2
"H1f4 (H1.4 linker histone, cluster member)",1,91.3,30.1
"H1f4 (H1.4 linker histone, cluster member)",2,89.9,101
"H1f4 (H1.4 linker histone, cluster member)",3,34.1,55.4
Klk1b24 (kallikrein 1-related peptidase b24),1,136 (active),105
Klk1b24 (kallikrein 1-related peptidase b24),2,74.9,93.6
Klk1b24 (kallikrein 1-related peptidase b24),3,97.6,96.4
Mgme1 (mitochondrial genome maintenance exonuclease 1),1,61.4,68.1
Mgme1 (mitochondrial genome maintenance exonuclease 1),2,82,76.9
Mgme1 (mitochondrial genome maintenance exonuclease 1),3,132 (active),131
Trim21 (tripartite motif-containing 21),1,60.5,68.5
Trim21 (tripartite motif-containing 21),2,97.5,106
Trim21 (tripartite motif-containing 21),3,76.9,117
Mup4 (major urinary protein 4),1,53,59.3
Mup4 (major urinary protein 4),2,73.6,73.3
Mup4 (major urinary protein 4),3,57.6,58.7
Stmn3 (stathmin-like 3),1,106,87.1
Stmn3 (stathmin-like 3),2,104,125
Stmn3 (stathmin-like 3),3,76.8,77.5
Mapk1ip1l,1,35.2,64
Mapk1ip1l,2,71.5,70.8
Mapk1ip1l,3,127 (active),138

Not a retest: entries from further up.
Gene,reagent,"GFP, % of control","viability (ATP), % of control"
"Fam199x (family with sequence similarity 199, X-linked)",2,74.2,83.8
"Fam199x (family with sequence similarity 199, X-linked)",3,115,95.9
Ccdc92 (coiled-coil domain containing 92),1,69.9,66.1
Ccdc92 (coiled-coil domain containing 92),2,75.4,65.8
Ccdc92 (coiled-coil domain containing 92),3,60,39.7
Prss3b (serine protease 3B),1,76.5,64
